# Results deposited as PubChem BioAssay AID504786 (Drosophila RNAi Screening Center, 2011).
# Screen: 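Fly genes required for HIF-dependent transcription when hypoxia is mimicked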 (primary screen)
# Cells: Drosophila S2 cells with a stable HIF luciferase reporter
# Knock-down reagent: long dsRNA against Drosophila genes, about 0.2 µg dsRNA per well of a 384-well plate
# Duration: three days of knock-down, then 20 h of DFO before reading
# Conditions: desferrioxamine (DFO) at 100 µM, an iron chelator that mimics hypoxia, for 20 h
# Read-out: 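HIF reporter luminescence in cells given 100 µM DFO for 20 h, using the mouse ldh-a hypoxia-response element, scored as per-plate z-scores; higher means greater loss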
# Reading the numbers: z-score: higher = stronger loss of HIF reporter signal
# The deposit covers about 21,000 reagents; below is a random part of those that have a named target and a result. 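Primary screen; positive scores mean lost reporter signal, so the sign may be inverted from the usual convention.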 Names joined by + are all predicted targets of the reagent.
Target gene,DRSC id,"z-score, replicate 1","z-score, replicate 2","z-score, replicate 3","z-score, replicate 4"
dpr9 (defective proboscis extension response 9),DRSC14534,-0.4,-0.2,,
dpr9 (defective proboscis extension response 9),DRSC14985,-0.2,-0.2,,
dpr9 (defective proboscis extension response 9),DRSC14986,-0.7,-0.2,,
Ski6,DRSC02491,-0.3,1.7,,
Nubp1 (NUBP iron-sulfur cluster assembly factor 1),DRSC02639,-0.3,-0.2,,
CG3713,DRSC18648,-0.3,-0.3,,
Srp9 (Signal recognition particle 9),DRSC10973,-0.6,0.6,,
"Polr2E (RNA polymerase II, I and III subunit E)",DRSC06100,5.8,4,,
CG31342,DRSC15349,-0.4,-0.3,,
CG31342,DRSC16246,-0.1,-0.6,,
CG31673,DRSC03207,-0.2,0.1,,
CG5111,DRSC15717,0.1,1.3,,
CG8541,DRSC10989,0,0,,
casp (caspar),DRSC07164,-0.2,-0.2,,
ringer (ringmaker),DRSC10455,-0.2,-0.3,,
"SdhAL (Succinate dehydrogenase, subunit A (flavoprotein)-like)",DRSC10539,-0.2,-0.4,,
AspRS (Aspartyl-tRNA synthetase),DRSC05914,0.1,-0.2,,
CG14708,DRSC14930,-0.3,-0.5,,
CG4004,DRSC19791,-0.3,-0.8,,
CG4004,DRSC19882,-0.3,-0.6,,
Cpr49Ag (Cuticular protein 49Ag),DRSC07203,-0.4,-0.5,,
CG3546,DRSC18308,-0.4,-0.5,,
SkpB (SKP1-related B),DRSC07683,-0.5,0.1,,
Gr22e (Gustatory receptor 22e),DRSC20912,0.6,0,,
Tim9a,DRSC19753,-0.3,-0.5,,
CG6785,DRSC02993,0,-0.4,,
Argk1 (Arginine kinase 1),DRSC08959,-0.3,-0.7,-0.1,-0.1
Argk1 (Arginine kinase 1),DRSC09668,0,-0.3,,
Argk1 (Arginine kinase 1),DRSC10460,-0.3,-0.2,,
CG14230,DRSC19586,0.3,1.3,,
Ccp84Aa,DRSC12586,-0.4,-0.3,,
DptB (Diptericin B),DRSC06001,0,0.3,,
CG10081,DRSC05962,-0.2,-0.6,,
CG11586,DRSC08203,-0.1,-0.4,,
CG4622,DRSC04479,0.1,0.2,,
Galphao (G protein alpha subunit o),DRSC07430,-0.3,-0.3,,
CG4839,DRSC02783,-0.1,-0.5,,
CG4839,DRSC02784,-0.3,-0.5,,
CG17298,DRSC15221,0.6,-0.3,,
ZnT86D (Zinc transporter 86D),DRSC16091,-0.1,-0.1,,
CG9205,DRSC08642,-0.3,-0.1,,

Only “z-score, replicate 2” (3 entries from above):
Srp9 (Signal recognition particle 9) [DRSC10973]: 0.6
Polr2E (RNA polymerase II, I and III subunit E) [DRSC06100]: 4
CG31342 [DRSC15349]: -0.3

Further entries follow.
Target gene,DRSC id,"z-score, replicate 1","z-score, replicate 2","z-score, replicate 3","z-score, replicate 4"
blot (bloated tubules),DRSC09485,0.5,-0.3,,
blot (bloated tubules),DRSC11328,-0.4,-0.6,,
Tbp (TATA binding protein),DRSC04662,1.4,2.6,,
CG3597,DRSC00617,-0.2,-0.4,,
Zyx (Zyxin),DRSC17186,-0.2,-0.5,,
Fkbp59 (FK506-binding protein 59kD),DRSC03323,-0.1,-0.4,,
CG7675,DRSC16280,-0.2,-0.5,,
CG4041,DRSC18339,-0.3,0,,
CG32021 (retired record),DRSC17206,0.4,-0.2,,
mey (morpheyus),DRSC14468,-0.1,-0.4,,
ap (apterous),DRSC04917,-0.5,-1.2,,
Rh3 (Rhodopsin 3),DRSC16822,-0.1,-0.1,,
CG13958 (retired record),DRSC02300,0.1,0.4,,
Cad74A (Cadherin 74A),DRSC10636,-0.1,0.6,,
CG42380 + CG42379 + PIG-M + 1 more,DRSC03884,0.5,0.5,,
CG42380 + CG42379 + PIG-M + 1 more,DRSC04580,-0.2,-0.2,,
Vm34Ca (Vitelline membrane 34Ca),DRSC03475,-0.2,-0.3,,
rept (reptin),DRSC11388,3.2,5.1,,
CG32457,DRSC11596,-0.4,0,-0.5,0.1
CG7907,DRSC16339,0.3,0.4,,
Acp53Ea (Accessory gland protein 53Ea),DRSC05916,-0.3,-0.3,,
CG15535,DRSC15071,-0.6,-0.7,,
Fhos (Formin homology 2 domain containing),DRSC08943,0.4,-0.4,,
Fhos (Formin homology 2 domain containing),DRSC10545,-0.3,-0.4,,
Fhos (Formin homology 2 domain containing),DRSC10546,-0.4,-0.6,,
Fhos (Formin homology 2 domain containing),DRSC10547,-0.5,-0.7,,
yl (yolkless),DRSC20387,-0.4,-0.7,,
Nca (Neurocalcin),DRSC11233,-0.3,-0.4,,
Nmdar2 (NMDA receptor 2),DRSC18183,-0.4,-0.4,,
Nmdar2 (NMDA receptor 2),DRSC18511,-0.3,-0.7,,
Nmdar2 (NMDA receptor 2),DRSC18569,-0.3,-0.4,,
prd1 (pruning defect 1),DRSC15227,-0.5,-0.8,,
mRpL4 (mitochondrial ribosomal protein L4),DRSC03562,1.4,1,,
Adar (Adenosine deaminase acting on RNA),DRSC17725,-0.1,-0.8,,
AANATL6 (Arylalkylamine N-acetyltransferase-like 6),DRSC06773,-0.2,-0.3,,
CG15330,DRSC18014,-0.3,-0.4,,
CG30471,DRSC07096,-0.1,-0.1,,
Mtpalpha (Mitochondrial trifunctional protein alpha subunit),DRSC01994,-0.1,-0.3,,
Gr39b (Gustatory receptor 39b),DRSC01848,-0.1,-0.2,,
CG33796,DRSC09417,-0.2,0.1,,
CG15386 + CG42371,DRSC00400,-0.2,0,,
CG1542,DRSC15035,3.2,4.7,,
